This passage reports binding results from patent US20250197513A1, “OSMR-SPECIFIC MONOCLONAL ANTIBODIES AND METHODS OF THEIR USE” (THE BOARD OF REGENTS OF THE UNIVERSITY OF TEXAS SYSTEM, priority 2021, published 2025).

Protein sequences, listed by entry. Tags and fused reporters are not part of them. Residues count along the entry.
UniProt Q8NI17, residues 20-732: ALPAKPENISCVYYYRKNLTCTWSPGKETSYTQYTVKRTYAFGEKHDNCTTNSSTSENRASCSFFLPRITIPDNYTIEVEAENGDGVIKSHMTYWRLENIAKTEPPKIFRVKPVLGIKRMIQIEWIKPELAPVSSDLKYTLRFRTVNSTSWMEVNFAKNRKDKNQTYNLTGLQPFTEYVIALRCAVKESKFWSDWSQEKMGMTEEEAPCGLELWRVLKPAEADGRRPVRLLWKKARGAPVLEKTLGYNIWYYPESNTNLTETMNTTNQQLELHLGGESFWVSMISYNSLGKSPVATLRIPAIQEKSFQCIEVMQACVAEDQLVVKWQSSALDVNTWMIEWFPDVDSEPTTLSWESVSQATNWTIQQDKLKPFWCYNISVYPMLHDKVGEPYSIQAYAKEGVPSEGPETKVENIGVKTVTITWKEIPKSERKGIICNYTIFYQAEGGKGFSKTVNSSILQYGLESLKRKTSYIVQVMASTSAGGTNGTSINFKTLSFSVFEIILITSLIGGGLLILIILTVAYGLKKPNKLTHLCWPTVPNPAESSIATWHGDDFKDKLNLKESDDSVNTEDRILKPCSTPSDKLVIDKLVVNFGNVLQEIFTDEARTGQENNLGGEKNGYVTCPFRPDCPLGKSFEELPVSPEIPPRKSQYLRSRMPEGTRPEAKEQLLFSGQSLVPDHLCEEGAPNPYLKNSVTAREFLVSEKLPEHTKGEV

Results are given in words; binding and its absence hold for the method and conditions named. Some binding calls cover weakened binding; strength is not graded here.

The target of assay [1] is Interleukin-31 Receptor (IL31RA) on human ovarian cancer cells (human) (UniProt Q8NI17). Nature of the assay: OSMR immunoprecipitation, immunoblot; IL31-induced heterodimer. A general note: Immunoblotting shows a protein as a band on a membrane.
In assay [2] the target is T1, interleukin-6 signal transducer (IL6ST) on human ovarian cancer cells (human), P40189.
T1 chain: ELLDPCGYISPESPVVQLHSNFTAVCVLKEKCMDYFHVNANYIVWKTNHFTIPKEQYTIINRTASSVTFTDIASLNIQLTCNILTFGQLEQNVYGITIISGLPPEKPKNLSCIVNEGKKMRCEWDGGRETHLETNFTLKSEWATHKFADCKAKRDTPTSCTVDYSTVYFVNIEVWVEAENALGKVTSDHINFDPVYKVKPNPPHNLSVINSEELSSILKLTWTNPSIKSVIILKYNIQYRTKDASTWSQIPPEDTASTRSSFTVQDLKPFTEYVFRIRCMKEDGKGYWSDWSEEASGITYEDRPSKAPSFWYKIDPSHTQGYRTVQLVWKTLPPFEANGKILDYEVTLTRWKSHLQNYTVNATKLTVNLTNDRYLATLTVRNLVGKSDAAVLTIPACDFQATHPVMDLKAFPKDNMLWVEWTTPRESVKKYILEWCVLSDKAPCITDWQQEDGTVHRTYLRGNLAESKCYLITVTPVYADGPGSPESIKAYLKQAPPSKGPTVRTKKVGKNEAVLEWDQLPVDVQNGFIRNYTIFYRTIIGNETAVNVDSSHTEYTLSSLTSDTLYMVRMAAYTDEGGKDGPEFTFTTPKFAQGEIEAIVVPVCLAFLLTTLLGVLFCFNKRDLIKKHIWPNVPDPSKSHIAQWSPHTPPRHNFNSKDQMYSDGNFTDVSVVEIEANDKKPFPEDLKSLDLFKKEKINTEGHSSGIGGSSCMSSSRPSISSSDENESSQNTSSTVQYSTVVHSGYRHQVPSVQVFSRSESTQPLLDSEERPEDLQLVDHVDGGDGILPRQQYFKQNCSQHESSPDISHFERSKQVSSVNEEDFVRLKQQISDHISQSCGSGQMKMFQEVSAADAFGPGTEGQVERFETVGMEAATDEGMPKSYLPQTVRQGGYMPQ
The assay can be described thus: dimerization assay (cross-linking, immunoprecipitation) after OSM stimulation. Conditions: remark: other sources report otherwise.

For assay [3], the target named is T1, interleukin-6 signal transducer (IL6ST) …. The assay can be described thus: BS3 cross-linking dimerization assay in A2780 sensitive and A2780-CP cells after OSM stimulation. Conditions: remark: other sources report otherwise.

B1: OSMR on human ovarian cancer cells (HEYA8, OVCAR4, A2780) (receptor, UniProt Q99650 28-979, looked up)
chain: ERLPLTPVSLKVSTNSTRQSLHLQWTVHNLPYHQELKMVFQIQISRIETSNVIWVGNYSTTVKWNQVLHWSWESELPLECATHFVRIKSLVDDAKFPEPNFWSNWSSWEEVSVQDSTGQDILFVFPKDKLVEEGTNVTICYVSRNIQNNVSCYLEGKQIHGEQLDPHVTAFNLNSVPFIRNKGTNIYCEASQGNVSEGMKGIVLFVSKVLEEPKDFSCETEDFKTLHCTWDPGTDTALGWSKQPSQSYTLFESFSGEKKLCTHKNWCNWQITQDSQETYNFTLIAENYLRKRSVNILFNLTHRVYLMNPFSVNFENVNATNAIMTWKVHSIRNNFTYLCQIELHGEGKMMQYNVSIKVNGEYFLSELEPATEYMARVRCADASHFWKWSEWSGQNFTTLEAAPSEAPDVWRIVSLEPGNHTVTLFWKPLSKLHANGKILFYNVVVENLDKPSSSELHSIPAPANSTKLILDRCSYQICVIANNSVGASPASVIVISADPENKEVEEERIAGTEGGFSLSWKPQPGDVIGYVVDWCDHTQDVLGDFQWKNVGPNTTSTVISTDAFRPGVRYDFRIYGLSTKRIACLLEKKTGYSQELAPSDNPHVLVDTLTSHSFTLSWKDYSTESQPGFIQGYHVYLKSKARQCHPRFEKAVLSDGSECCKYKIDNPEEKALIVDNLKPESFYEFFITPFTSAGEGPSATFTKVTTPDEHSSMLIHILLPMVFCVLLIMVMCYLKSQWIKETCYPDIPDPYKSSILSLIKFKENPHLIIMNVSDCIPDAIEVVSKPEGTKIQFLGTRKSLTETELTKPNYLYLLPTEKNHSGPGPCICFENLTYNQAASDSGSCGHVPVSPKAPSMLGLMTSPENVLKALEKNYMNSLGEIPAGETSLNYVSQLASPMFGDKDSLPTNPVEAPHCSEYKMQMAVSLRLALPPPTENSSLSSITLLDPGEHYC
Regarding B1, the binding entry in assay [1] is “binds”.

B2: OSMR on human ovarian cancer cells (HEYA8, OVCAR4, A2780), Q99650 28-979 (receptor, UniProt Q99650 28-979, looked up)
chain: ERLPLTPVSLKVSTNSTRQSLHLQWTVHNLPYHQELKMVFQIQISRIETSNVIWVGNYSTTVKWNQVLHWSWESELPLECATHFVRIKSLVDDAKFPEPNFWSNWSSWEEVSVQDSTGQDILFVFPKDKLVEEGTNVTICYVSRNIQNNVSCYLEGKQIHGEQLDPHVTAFNLNSVPFIRNKGTNIYCEASQGNVSEGMKGIVLFVSKVLEEPKDFSCETEDFKTLHCTWDPGTDTALGWSKQPSQSYTLFESFSGEKKLCTHKNWCNWQITQDSQETYNFTLIAENYLRKRSVNILFNLTHRVYLMNPFSVNFENVNATNAIMTWKVHSIRNNFTYLCQIELHGEGKMMQYNVSIKVNGEYFLSELEPATEYMARVRCADASHFWKWSEWSGQNFTTLEAAPSEAPDVWRIVSLEPGNHTVTLFWKPLSKLHANGKILFYNVVVENLDKPSSSELHSIPAPANSTKLILDRCSYQICVIANNSVGASPASVIVISADPENKEVEEERIAGTEGGFSLSWKPQPGDVIGYVVDWCDHTQDVLGDFQWKNVGPNTTSTVISTDAFRPGVRYDFRIYGLSTKRIACLLEKKTGYSQELAPSDNPHVLVDTLTSHSFTLSWKDYSTESQPGFIQGYHVYLKSKARQCHPRFEKAVLSDGSECCKYKIDNPEEKALIVDNLKPESFYEFFITPFTSAGEGPSATFTKVTTPDEHSSMLIHILLPMVFCVLLIMVMCYLKSQWIKETCYPDIPDPYKSSILSLIKFKENPHLIIMNVSDCIPDAIEVVSKPEGTKIQFLGTRKSLTETELTKPNYLYLLPTEKNHSGPGPCICFENLTYNQAASDSGSCGHVPVSPKAPSMLGLMTSPENVLKALEKNYMNSLGEIPAGETSLNYVSQLASPMFGDKDSLPTNPVEAPHCSEYKMQMAVSLRLALPPPTENSSLSSITLLDPGEHYC
B2: the binding result in assay [2] and in assay [3] was “binds” throughout.
